Reference: US6964763
These are yes or no findings as the source states them, for the method shown. Some entries that bind do so weakly or less than the wild type.

Amino acid sequences for entries named in this document (tags omitted). Residues count along the entry.
UniProt P07996, residues 19-1170: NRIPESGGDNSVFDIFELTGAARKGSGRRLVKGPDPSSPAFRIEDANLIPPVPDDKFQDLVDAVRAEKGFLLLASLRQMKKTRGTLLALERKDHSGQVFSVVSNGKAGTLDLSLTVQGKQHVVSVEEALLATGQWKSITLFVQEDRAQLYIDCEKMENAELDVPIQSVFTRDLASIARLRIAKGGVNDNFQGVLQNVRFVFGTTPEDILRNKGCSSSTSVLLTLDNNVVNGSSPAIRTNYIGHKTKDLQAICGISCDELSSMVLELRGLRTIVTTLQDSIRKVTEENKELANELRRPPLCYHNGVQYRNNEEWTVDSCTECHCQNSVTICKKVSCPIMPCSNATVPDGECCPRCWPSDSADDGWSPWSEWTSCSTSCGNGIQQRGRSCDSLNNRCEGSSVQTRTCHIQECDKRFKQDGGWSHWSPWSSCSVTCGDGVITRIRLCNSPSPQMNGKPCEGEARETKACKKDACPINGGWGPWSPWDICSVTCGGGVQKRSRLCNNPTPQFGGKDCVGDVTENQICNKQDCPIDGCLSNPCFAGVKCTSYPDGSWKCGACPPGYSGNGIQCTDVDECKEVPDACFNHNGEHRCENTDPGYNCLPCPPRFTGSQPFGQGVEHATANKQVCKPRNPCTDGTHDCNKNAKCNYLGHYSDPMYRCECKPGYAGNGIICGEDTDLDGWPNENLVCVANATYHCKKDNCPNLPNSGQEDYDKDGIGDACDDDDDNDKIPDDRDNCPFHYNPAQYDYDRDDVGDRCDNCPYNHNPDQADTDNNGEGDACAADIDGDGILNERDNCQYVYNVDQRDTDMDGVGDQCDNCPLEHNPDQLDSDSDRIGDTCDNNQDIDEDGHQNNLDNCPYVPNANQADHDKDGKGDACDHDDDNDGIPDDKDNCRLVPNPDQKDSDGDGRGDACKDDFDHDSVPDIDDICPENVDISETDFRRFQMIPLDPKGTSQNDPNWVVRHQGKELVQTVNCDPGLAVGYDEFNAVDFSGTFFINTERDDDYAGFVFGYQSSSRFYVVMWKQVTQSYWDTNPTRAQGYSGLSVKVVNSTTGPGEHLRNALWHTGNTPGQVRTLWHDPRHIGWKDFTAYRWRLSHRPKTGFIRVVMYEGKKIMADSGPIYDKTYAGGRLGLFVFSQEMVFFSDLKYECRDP
UniProt P13501, residues 24-91: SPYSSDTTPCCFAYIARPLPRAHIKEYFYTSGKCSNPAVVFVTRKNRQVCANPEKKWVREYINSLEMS

Tests used:
[1] = target: Purified human calcium-replete thrombospondin-1 (TSP1) from thrombin-activated platelets (human) (UniProt P07996); test: solid phase binding, 125I-RANTES (0.01 µM -10.0 µM) on immobilized TSP1
[2] = target: Purified human calcium-replete thrombospondin-1 (TSP1) from thrombin-activated platelets (human) (UniProt P07996); test: solid phase binding, 125I-RANTES on immobilized TSP1

“RANTES (regulated on activation normal T expressed and secreted protein) (from UniProt P13501 24-91) (ligand)” was tested, and the binding [1] was “binds” and the binding [2] was “binds”.
